Reference: PubChem BioAssay AID662 (National Center for Advancing Translational Sciences (NCATS), 2007)
The list shows a part of the results. Shown are side measurements of this screen, not its main read-out; they come without a call. Compounds called inactive in the main read-out are mostly missing here. Words in brackets tell the shape of the fitted curve; partial curves, single points and poor fits give uncertain potencies.

Assay: Cell signaling CRE-BLA (Fsk stim)
Details: CHO CRE-bla reporter (cAMP response element driving beta-lactamase), forskolin EC10, beta-lactamase ratio; measured here: 460 nm blue channel
In short: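 Using CellSensor CRE-bla CHO cells in Opti-MEM with 0.5% dialyzed FBS, compounds were titrated with EC10 NKH 477 for 3 h at 37 °C. CCF4 ratio (460/530 nm) gave %Activity; AC50 derived.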
For `CCOc1cc(/C=N/n2cnnc2)ccc1OCC(=O)Nc1ccccc1OC`, the AC50 was 12.6 µM [rising, partial curve].
For `Cc1nc2ccccc2c2oc(C(=O)NCCCN3CCCC3=O)cc12`, the AC50 was 10 µM [rising, partial curve].
With `CS(=O)(=O)Nc1cccc(-c2nccc(Nc3ccc(F)cc3)n2)c1` the AC50 was 3.98 µM [rising, partial curve].
With `CN1C(=O)/C(=C2/C=CC=CN2C)OC1=S` the AC50 was 0.00316 µM [falling, full curve, poor fit].
With `CCOc1cc(C(=O)NC(C)COC)cc(OCC)c1OCC` (centres undefined) the AC50 was 0.00316 µM [falling, full curve, poor fit].
With `CCCCCCSc1ncc(C#N)c(N)n1` the AC50 was 10 µM [rising, partial curve].
With `COc1ccc(-c2cc(C(F)(F)F)n3nc(C(=O)N4CCCCC4)cc3n2)cc1` the AC50 was 10 µM [rising, partial curve].
In the case of `Cc1ccc(NC(=O)N2CCC(O)(c3ccc(Cl)cc3)CC2)cc1`, the AC50 is reported as 0.501 µM [falling, full curve, poor fit].
In the case of `COc1cc(OC)c(NC2=NCCCCC2)cc1Cl`, the AC50 is reported as 10 µM [falling, partial curve].
With `C=CCn1c(COc2ccc(CC)cc2)nnc1SCC(=O)N(C)C1CCS(=O)(=O)C1` (centres undefined) the AC50 was 0.00316 µM [falling, full curve, poor fit].
In the case of `Cc1ccc(-c2cc(C(=O)NC3=NCCS3)c3cc(Br)ccc3n2)o1`, the AC50 is reported as 12.6 µM [falling, partial curve].
For `COC(=O)c1[nH]c2ccccc2c1NC(=O)CCN1CCN(C2CCCCC2)CC1`, the AC50 was 3.16 µM [falling, full curve, poor fit].
For `COc1ncc2nc(C)c(=O)n(Cc3ccc(F)cc3)c2n1`, the AC50 was 10 µM [rising, partial curve].
For `COc1cccc(Cn2c(=O)cnc3cnc(N4CCOCC4)nc32)c1`, the AC50 was 12.6 µM [rising, partial curve].
With `COC(=O)c1cc(OC)c(OC)cc1NC(=O)C1CCC(=O)N1S(=O)(=O)c1ccc(C)cc1` (centres undefined) the AC50 was 10 µM [rising, partial curve].
With `CN1C(=O)CSc2ccc(NC(=O)NCc3ccco3)cc21` the AC50 was 0.00631 µM [falling, full curve, poor fit].
In the case of `CCOc1ccc(OCCN2C(=O)NC3(CCCc4ccccc43)C2=O)cc1` (centres undefined), the AC50 is reported as 12.6 µM [rising, single point].
In the case of `CCc1nc(NCc2ccccn2)c2oc3ccccc3c2n1`, the AC50 is reported as 3.16 µM [rising, partial curve].
For `Cc1nc2ccc(N)cc2c(=O)n1Cc1ccc(Cl)cc1`, the AC50 was 20 µM [rising, single point].
In the case of `Cc1nc(N2CCCC2)c2ccsc2n1`, the AC50 is reported as 10 µM [rising, partial curve].
With `CCCCC(=O)Nc1ccc2oc(-c3cccnc3)nc2c1` the AC50 was 10 µM [rising, single point].
For `CCSc1ncnc2c1oc1ccccc12`, the AC50 was 10 µM [falling, partial curve].
In the case of `CCC1CCCCN1C(=O)c1cc(-c2ccc(Cl)c(Cl)c2)on1` (centres undefined), the AC50 is reported as 3.98 µM [rising, partial curve].
In the case of `Cc1nnc(Sc2nc3ccccc3o2)c2ccccc12`, the AC50 is reported as 3.98 µM [falling, partial curve].
In the case of `COc1cc(NC(=O)c2noc3c2CCCC3)c(OC)cc1Cl`, the AC50 is reported as 25.1 µM [rising, single point].
With `Cc1ccc(-n2c(SCC(=O)Nc3ccc4c(c3)OCCO4)nnc2-c2ccco2)cc1` the AC50 was 5.01 µM [falling, single point].
In the case of `COC(=O)c1[nH]c2c(c1C)C(=O)CC(c1ccccc1)C2` (centres undefined), the AC50 is reported as 1.58 µM [rising, full curve].
With `O=C(Cc1ccccc1I)Nc1ccccc1` the AC50 was 7.94 µM [rising, partial curve].
In the case of `COC1=C(OC)C(=O)c2ccccc2C1=O`, the AC50 is reported as 25.1 µM [falling, partial curve].
In the case of `CCCCn1c(SCC(=O)N2CCN(c3ccccc3)CC2)nc2ccsc2c1=O`, the AC50 is reported as 5.01 µM [falling, full curve].
With `COC(=O)Nc1ccc2c(c1)N(C(=O)CCN1CCOCC1)c1ccccc1S2` the AC50 was 12.6 µM [rising, partial curve].
With `CC(C)(C)n1ncc2c(=O)n(CC(=O)N3CCN(c4ccccc4)CC3)cnc21` the AC50 was 25.1 µM [rising, single point].
For `COc1ccc(-c2nnn(CC(=O)N(CC(=O)NCCC(C)C)Cc3cccs3)n2)cc1OC`, the AC50 was 12.6 µM [rising, partial curve].
With `COc1cc(C(=O)NCCc2cn3ccccc3n2)cc(OC)c1OC` the AC50 was 6.31 µM [rising, partial curve].
With `COc1cccc(C2C=C(c3ccc(Br)s3)Nc3ncnn32)c1OC` (centres undefined) the AC50 was 15.8 µM [rising, single point].
In the case of `CN(C)c1ccc(-c2nn3c(-c4ccccc4Cl)nnc3s2)cc1`, the AC50 is reported as 2 µM [rising, full curve].
With `O=c1[nH]c(-c2ccccc2O)nc2c1CCCC2` the AC50 was 0.0316 µM [falling, full curve, poor fit].
In the case of `CNc1nc(-c2ccccc2Cl)nc2ccccc12`, the AC50 is reported as 12.6 µM [rising, partial curve].
With `Cc1c(O)cccc1C(=O)N[C@@H](CSc1ccccc1)[C@H](O)CN1C[C@H]2CCCC[C@H]2C[C@H]1C(=O)NC(C)(C)C` the AC50 was 15.8 µM [falling, partial curve, poor fit].
In the case of `COc1cc(Br)cc(-c2nc3c(c(=O)[nH]c(=O)n3Cc3ccccc3)n2C)c1O`, the AC50 is reported as 7.94 µM [rising, partial curve].
With `O=C(CSc1nnc(-c2cccnc2)n1Cc1ccco1)N1c2ccccc2Sc2ccccc21` the AC50 was 25.1 µM [rising, single point].
In the case of `Cc1cc(C)n(-c2nc3ccccc3nc2Nc2ccc(CC(=O)O)cc2)n1`, the AC50 is reported as 12.6 µM [rising, single point].
For `COc1ccc(-c2nc3cnc(N4CCOCC4)nc3n(-c3ccc(OC)cc3)c2=O)cc1`, the AC50 was 10 µM [rising, partial curve].
With `CCCn1c(C)nc2c(NCCN3CCCC3)nc(C)nc21` the AC50 was 12.6 µM [rising, single point].
